The values below come from PMC6331645.

Sequences of proteins named here, by UniProt entry; tags and fusion partners are left off. A change or cut given only in a name is not applied to a line headed by its entry.
UniProt P60953: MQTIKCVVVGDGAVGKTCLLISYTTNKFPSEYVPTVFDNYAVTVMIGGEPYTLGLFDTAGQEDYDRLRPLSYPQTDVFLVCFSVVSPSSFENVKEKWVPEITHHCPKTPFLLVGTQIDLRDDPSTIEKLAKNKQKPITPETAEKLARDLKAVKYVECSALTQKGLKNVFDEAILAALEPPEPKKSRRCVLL
UniProt Q13153: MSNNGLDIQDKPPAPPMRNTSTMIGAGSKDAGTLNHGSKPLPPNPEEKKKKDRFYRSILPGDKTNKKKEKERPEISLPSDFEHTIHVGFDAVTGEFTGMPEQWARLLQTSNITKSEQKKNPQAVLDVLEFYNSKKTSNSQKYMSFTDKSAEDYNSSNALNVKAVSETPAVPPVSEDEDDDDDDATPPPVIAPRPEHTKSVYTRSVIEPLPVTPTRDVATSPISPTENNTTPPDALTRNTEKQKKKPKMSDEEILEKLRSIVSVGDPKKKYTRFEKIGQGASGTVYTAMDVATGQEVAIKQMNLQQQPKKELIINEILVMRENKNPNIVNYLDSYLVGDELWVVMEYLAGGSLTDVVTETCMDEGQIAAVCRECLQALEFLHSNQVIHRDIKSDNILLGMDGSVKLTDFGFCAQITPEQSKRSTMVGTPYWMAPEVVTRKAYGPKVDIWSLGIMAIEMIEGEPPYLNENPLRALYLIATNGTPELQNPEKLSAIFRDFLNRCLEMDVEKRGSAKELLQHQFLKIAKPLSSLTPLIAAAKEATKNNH

Results are given in words; binding and its absence hold for the method and conditions named. Binding seen in cells or lysates may run through a third protein. Some results given as binding are weak or reduced against the parent protein; the word gives no strength.

For experiment [1], the target named is RA-HRas (wild-type), the Ras half of the R-HRas sensor (UniProt P01112). Kind of experiment: split reporter; ddFP cross-reaction test in migrating MDA-MB-231 cells: a full sensor (R-HRas or G-Rac1) co-expressed with the copy A-labelled non-target GTPase (GA-Rac1 or RA-HRas, with IRES-Lyn-iRFP682); RA and GA signals followed over time.
Experiment [2] has as its target RA-Cdc42 (wild-type), the GTPase half of the R-Cdc42 sensor (UniProt P60953). Kind of experiment: split reporter; ddFP sensors from bicistronic 2A vectors in living cultured cell lines (HeLa, MDA-MB-231), confocal imaging at 37 °C; stimulated with EGF (50 ng ml^-1) and gefitinib (400 nM), rapamycin-induced recruitment of activators to the plasma membrane, or random cell migration.

For experiment [3], the target named is GA-Cdc42, the GTPase half of the G-Cdc42 sensor (UniProt P60953). Kind of experiment: split reporter; ddFP sensors in neurons: cultured rat hippocampal neurons (OptoTrkB, blue light), mouse organotypic cortical slices (two-photon glutamate uncaging on single spines) and motor cortex of living mice (two-photon imaging).

Regarding “B3-CRIB_(Pak1) (B3-labelled CRIB domain of Pak1, amino acids 69-108) (from UniProt Q13153 69-108) (domain or fragment)”, the values for the binding result in experiment [1], in experiment [2] and in experiment [3] were “no binding”, “binds” and “binds”, respectively.
